Some peptides are written in HELM: one residue between dots, names in brackets for other building blocks, links after the first $. Where no end group is shown, it is not given here.

The nature of the data set: general procedure: Boc solid-phase peptide synthesis; 4-methyl benzhydrylamine resin. The conditions noted are these: whole synthesis, scale 0.5 mmol.
As to DLVAIQNKNE-NH2, the crude mass was determined as 789 mg. On to PEPTIDE1{R.Y.T.D.L.V.A.I.[am]}$$$$V2.0, for which the crude mass was 651 mg. As for LVAIQNKNE-NH2, the figure is 450 mg. Regarding TDLVAIQ-NH2, the crude mass is 615 mg.

Nif-Thr-Asp-Leu-Val-Ala-Ile-Gln-NH2 gave a crude mass of 381 mg. In the case of PEPTIDE1{Y.T.D.L.V.A.I.[am]}$$$$V2.0, the crude mass is reported as 317 mg.

The substance TDLVAIQNKNE-NH2 had a crude mass of 1171 mg.

These data come from patent US5602230A (Centocor, Inc., priority 1995, dated 1997).
